This assay is described as follows: qHTS Assay to Find Inhibitors of Chronic Active B-Cell Receptor Signaling. Conditions: ABC-DLBCL IkBa-CBG/CBR reporter, luminescence ratio (green luciferase fused to IkBa over red control in TMD8 lymphoma cells), 4 h. The method, boiled down: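 Compounds up to 46 uM were incubated four hours with TMD8 cells whose green CBG68 luciferase is fused to IkappaBalpha; red CBR luminescence normalised the signal, and concentration-effect curves were fitted to fusion, red and ratio data.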
(In qHTS, concentration-response curves come from the screen itself.)

[1] abbreviates: measured here: CBR red luminescence, cell number.

Molecules are shown by their SMILES. The list shows a part of the results. The main result of the screen is listed elsewhere. These columns were measured beside it and carry no call. Most of these compounds were active or inconclusive in the main read-out, so they are no random draw. The note in brackets gives the kind of curve behind each potency; many fits are weak.

What is called AC50 is the midpoint of the concentration-response curve, whichever way the signal moves. Turning to `CCc1noc(C)c1C(=O)Nc1cccc2ncccc12`, the half-maximal activity concentration (AC50) under setting [1] was 2.51 µM [falling, full curve].

As for `CC(OC(=O)c1cnc2ccccc2n1)c1ccccc1Cl` (centres undefined), under setting [1], the AC50 is 7.94 µM [rising, partial curve].

`O=C(NCc1ccncc1)NC12CC3CC(CC(C3)C1)C2`: the AC50 under setting [1] is 0.316 µM [rising, full curve, poor fit].

Regarding `CCc1ccc(C(O)(c2ccccc2OC)C(CN2CCOCC2)c2ccccc2)cc1` (centres undefined), the half-maximal activity concentration (AC50) under setting [1] is 15.8 µM [falling, single point].

Take `Cc1cc(C)c2c(C)nn(C3CCCCC3)c2n1`: the AC50 under setting [1] was 4.61 µM [rising, partial curve, poor fit].

For `C/C(=N\NC(=O)c1ccccc1F)c1ccccn1`, the AC50 is 11.2 µM [falling, partial curve] under setting [1] and 35.5 µM [falling, single point] (measured here: IkBa-CBG green luminescence).

On to `CCC1SC(CC)C(=O)N(CC(=O)Nc2ccc3c(c2)OCO3)C1=O` (centres undefined), for which the AC50 under setting [1] is 14.6 µM [rising, partial curve, poor fit].

On to `Cc1ccccc1-c1nc(S(=O)(=O)c2ccc(Cl)cc2)c(NCCN2CCOCC2)o1`, for which, under setting [1], the half-maximal activity concentration (AC50) is 9.2 µM [falling, partial curve, poor fit].

`CC(C)NC(=O)c1onc(CSc2ccccc2)c1C(=O)O`: the AC50 under setting [1] was 11.2 µM [falling, partial curve].

On to `O=C(c1cccs1)N1CCN(C(=O)c2cn(-c3ccccc3)nc2-c2ccccc2)CC1`, for which the AC50 under setting [1] was 20.6 µM [rising, partial curve].

Regarding `CCOc1ccc2c(O)csc2c1`, the AC50 under setting [1] was 3.66 µM [falling, partial curve, poor fit].

On to `Nc1n[nH]c(=S)n1-c1ccc(Cl)cc1`, for which the AC50 under setting [1] is 31.6 µM [falling, single point].

Regarding `Cc1cc(C(=O)Nc2ccccc2Cc2ccccc2)no1`, the AC50 under setting [1] was 7.94 µM [falling, partial curve].

As to `Cc1cccc(C)c1NC(=O)c1cc(-c2ccccn2)nc2ccccc12`, the AC50 under setting [1] is 22.4 µM [falling, single point].

`COc1ccc(C(=O)/C=C/Nc2ccc(S(=O)(=O)Nc3cccc(C(C)=O)c3)cc2)cc1`: under setting [1], the half-maximal activity concentration (AC50) was 0.058 µM [rising, full curve, poor fit].

Turning to `COC(=O)c1c(-c2ccc(N(C)C)cc2)sc2ccc(OC)cc12`, the AC50 under setting [1] is 0.92 µM [rising, full curve, poor fit].

Turning to `COc1ccc(-c2cc([C@H]3[C@@H]4C=CCC[C@@]4(C)C(=O)N3Cc3ccccc3)ccc2F)cc1OC`, under setting [1], the half-maximal activity concentration (AC50) is 35.5 µM [falling, single point].

Take `CCOc1ccccc1NC(=O)C(=O)N/N=C/c1cc(Br)ccc1O`: the concentration at half-maximal activity (AC50) under setting [1] is 6.31 µM [falling, partial curve].

Values taken from PubChem BioAssay AID493014 (National Center for Advancing Translational Sciences (NCATS), 2011).
